In the supplement of paper PMC3334620:
Over roughly 33,000 sequences, “E-score (-0.5 to 0.5)” has its median near -0.0034; the highest 2% begin near 0.25. The list shows a part of the results.

Target: T1, Yap3 (UniProt P38749)
T1 sequence: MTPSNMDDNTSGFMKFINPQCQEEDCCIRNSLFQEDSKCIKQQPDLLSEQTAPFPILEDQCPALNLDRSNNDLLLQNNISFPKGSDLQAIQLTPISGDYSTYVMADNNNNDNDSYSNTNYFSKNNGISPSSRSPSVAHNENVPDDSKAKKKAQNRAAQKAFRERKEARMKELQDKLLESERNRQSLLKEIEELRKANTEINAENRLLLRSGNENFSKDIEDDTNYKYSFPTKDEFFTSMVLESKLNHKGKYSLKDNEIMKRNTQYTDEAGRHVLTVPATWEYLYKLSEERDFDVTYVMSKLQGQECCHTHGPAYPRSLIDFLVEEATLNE
Test: PBM E-score (8-mer binding enrichment) (E-score (-0.5 to 0.5)); higher = stronger / more preferred TF binding
Settings: protein concentration: 100 nM; construct: GST-full length
Summary of the method: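 Each ungapped eight-base word and its reverse complement, pooled, received an E-score from the Universal PBM Analysis Suite. Underlying scans, normalised with masliner, recorded fluorescent anti-GST bound to GST-tagged yeast transcription factors. These were applied at about 100-200 nM to universal all-10-mer Agilent arrays double-stranded by primer extension.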

First: AAACCCTT
Second: CATCGCCA
The “PBM E-score” value of the first is higher: 0.0938 for the first, 0.0129 for the second.

Compared with GATATCTA, GTAACTTA is higher in “PBM E-score” value: 0.0543 for the first, 0.221 for the second.

First: GGTTTCAC
Second: GCCTCTCA
The “PBM E-score” value of the first is higher: 0.0673 for the first, -0.194 for the second.

First: CATCCCGA
Second: GTATAAAA
The “PBM E-score” value of the first is lower: -0.00347 for the first, 0.287 for the second.

First: GGCTGGGA
Second: ACACCTAT
The “PBM E-score” value of the first is lower: -0.103 for the first, 0.0196 for the second.

Going from TGTTAGAA to CTGTTGGC, the “PBM E-score” value falls from 0.0937 to 0.0055.

Compared with ACGAGTGA, ATGCGGAG is lower in “PBM E-score” value: -0.148 for the first, -0.244 for the second.

Compared with AGTTCTAT, ACAACATG is higher in “PBM E-score” value: 0.12 for the first, 0.136 for the second.

First: TCGTTAGA
Second: CGATACTC
The “PBM E-score” value of the first is lower: -0.272 for the first, 0.0503 for the second.

First: CCGTGAGG
Second: AGACGTAC
The “PBM E-score” value of the first is lower: -0.322 for the first, -0.1 for the second.

First: AACCTCTC
Second: AACGGCCG
The “PBM E-score” value of the first is lower: 0.0137 for the first, 0.0727 for the second.

First: CCCAGGCA
Second: CCGCCAGA
The “PBM E-score” value of the first is lower: -0.194 for the first, 0.0222 for the second.

First: GACACACA
Second: ATCCGCCC
The “PBM E-score” value of the first is higher: 0.00427 for the first, -0.216 for the second.

Going from ACGCCACG to CAGAAGGG, the “PBM E-score” value falls from -0.156 to -0.303.

Going from CGTACCAC to GCTACCCC, the “PBM E-score” value falls from 0.0737 to -0.299.

Going from CCCATGCC to CACGCAAC, the “PBM E-score” value rises from -0.281 to 0.159.

Compared with AACACCTA, ACGGTCAC is lower in “PBM E-score” value: -0.0441 for the first, -0.137 for the second.

Going from CAGCAGCC to AGTAAGTG, the “PBM E-score” value rises from -0.118 to 0.0765.

First: TCTTAGCA
Second: AGTGACCA
The “PBM E-score” value of the first is lower: -0.107 for the first, -0.0575 for the second.

Compared with GTGAACAC, ATATATTA is higher in “PBM E-score” value: -0.156 for the first, 0.32 for the second.

First: GGCGCGAA
Second: CGCGCGAC
The “PBM E-score” value of the first is lower: -0.0201 for the first, 0.0956 for the second.

First: ACACGCAC
Second: TCCGAACA
The “PBM E-score” value of the first is lower: -0.144 for the first, 0.14 for the second.

Compared with AAAGGGGA, ACACTGTG is higher in “PBM E-score” value: -0.186 for the first, 0.0222 for the second.

Going from CGATGGAG to GGAGTCGA, the “PBM E-score” value falls from 0.0127 to -0.157.

Compared with CGTACGAC, CAGATCAC is higher in “PBM E-score” value: -0.0969 for the first, -0.0752 for the second.

Going from CGTAATTA to ATGGACGG, the “PBM E-score” value falls from 0.335 to 0.0351.

First: ACATATAC
Second: AGGCAAGG
The “PBM E-score” value of the first is higher: 0.146 for the first, -0.22 for the second.

Going from CGGCAGGC to ACTGGGAT, the “PBM E-score” value rises from -0.189 to -0.0213.

First: ACGCTGGG
Second: GGTAGTTA
The “PBM E-score” value of the first is lower: -0.302 for the first, 0.0916 for the second.

Compared with CGGCGGGC, GTGATTCA is higher in “PBM E-score” value: -0.189 for the first, 0.0177 for the second.

Compared with ATGCGAGA, ACGACGCC is lower in “PBM E-score” value: 0.0542 for the first, -0.231 for the second.

Compared with CAAATACC, CCGCTGCC is lower in “PBM E-score” value: 0.0818 for the first, -0.0814 for the second.

Going from AGCTAAAG to GGCTGCGA, the “PBM E-score” value falls from 0.0356 to -0.0841.

First: CACCGTGG
Second: CAGTCCGC
The “PBM E-score” value of the first is lower: -0.307 for the first, -0.102 for the second.

Compared with AAACTATA, AAACCTTA is lower in “PBM E-score” value: 0.19 for the first, 0.0835 for the second.

Compared with ACTACGTG, CATCAAAG is higher in “PBM E-score” value: -0.166 for the first, -0.0478 for the second.

First: GAGATCTC
Second: AGCAAATG
The “PBM E-score” value of the first is higher: 0.111 for the first, 0.0505 for the second.

Going from TAGAGACA to GGCATTAC, the “PBM E-score” value rises from -0.097 to 0.178.

Compared with ATCCTGTA, ATACTAAA is higher in “PBM E-score” value: 0.102 for the first, 0.188 for the second.

Compared with AGCCAAAC, CGAATCTC is lower in “PBM E-score” value: 0.046 for the first, -0.0851 for the second.

Compared with CGCGTCAA, ATCGTGAG is lower in “PBM E-score” value: 0.135 for the first, -0.114 for the second.

Going from GGCTTTAA to CTGCGTCC, the “PBM E-score” value falls from -0.0077 to -0.231.

Going from CAATCGGG to AAAAGTGA, the “PBM E-score” value rises from -0.05 to 0.132.

First: GGAACGGA
Second: GAGTCATA
The “PBM E-score” value of the first is higher: 0.0495 for the first, 0.0239 for the second.

Going from ATATTTAC to ATGGTGGC, the “PBM E-score” value falls from 0.208 to -0.204.

Going from CTACAGAG to GGAATATA, the “PBM E-score” value rises from -0.124 to 0.219.

Compared with GCACGCAA, CGCCTAGC is lower in “PBM E-score” value: -0.151 for the first, -0.187 for the second.

First: CGCCTACA
Second: AGTAACAA
The “PBM E-score” value of the first is lower: 0.0235 for the first, 0.129 for the second.

First: AGATGAGC
Second: TATGTAGA
The “PBM E-score” value of the first is higher: 0.0668 for the first, 0.0392 for the second.

Compared with CATGCAAG, CCGAGCTA is lower in “PBM E-score” value: -0.0305 for the first, -0.16 for the second.

Going from CACGAGGA to TCAATCAA, the “PBM E-score” value rises from -0.0608 to 0.122.

First: AGTTCACA
Second: AGGTTAGA
The “PBM E-score” value of the first is higher: -0.0341 for the first, -0.172 for the second.

First: CGCCAGGC
Second: AGTACTCG
The “PBM E-score” value of the first is lower: -0.209 for the first, 0.194 for the second.

Compared with ACTCCGCT, CTTTTCCA is higher in “PBM E-score” value: -0.14 for the first, -0.067 for the second.

First: CTCAGGCC
Second: CGTGCCTA
The “PBM E-score” value of the first is lower: -0.273 for the first, -0.14 for the second.

First: ACCGCAAC
Second: CGTATATC
The “PBM E-score” value of the first is higher: 0.093 for the first, 0.00115 for the second.

First: ATCCCCCC
Second: AAACGGCT
The “PBM E-score” value of the first is lower: -0.372 for the first, -0.0738 for the second.

First: AAGTGAAG
Second: ACTATCAT
The “PBM E-score” value of the first is lower: 0.0289 for the first, 0.207 for the second.

Going from ATGGAGTG to ACAGTCCC, the “PBM E-score” value falls from -0.0686 to -0.269.

First: TAGGGGAA
Second: GCCATTAA
The “PBM E-score” value of the first is lower: -0.0007 for the first, 0.0111 for the second.

Going from GCATGCAC to CCGAATCA, the “PBM E-score” value falls from -0.0435 to -0.0896.

Compared with CACATCAA, TACGTGCA is lower in “PBM E-score” value: 0.0645 for the first, 0.0517 for the second.

First: AGCTCTAG
Second: GAATCAAC
The “PBM E-score” value of the first is lower: -0.0862 for the first, 0.142 for the second.

Going from CATGGGTC to GGGTCGTA, the “PBM E-score” value falls from -0.137 to -0.162.

Compared with GACACGAA, GCGTTATA is higher in “PBM E-score” value: 0.0437 for the first, 0.112 for the second.

First: GACTCCCA
Second: ACCCCATA
The “PBM E-score” value of the first is lower: -0.193 for the first, -0.177 for the second.

Compared with CCTTGAAG, AGAAGGAT is lower in “PBM E-score” value: -0.165 for the first, -0.166 for the second.

Compared with AGGGCGTC, CTTCGTGC is higher in “PBM E-score” value: -0.169 for the first, -0.019 for the second.

Going from ATGGGCCC to CAACGGAC, the “PBM E-score” value rises from -0.292 to -0.0672.

Going from AATAAGAA to AGACTTCA, the “PBM E-score” value falls from 0.269 to -0.241.

Compared with GTCCTCTA, AAAGAATA is higher in “PBM E-score” value: -0.147 for the first, 0.224 for the second.

Going from TCCCGACA to CTCAATCC, the “PBM E-score” value falls from 0.0209 to 0.00177.

Going from GGCGACTA to TAGCCTCA, the “PBM E-score” value falls from -0.0103 to -0.024.

Going from ACGCCAGC to CGCCGCAG, the “PBM E-score” value rises from -0.175 to -0.139.

Going from CGCTTGCA to ATTTTACA, the “PBM E-score” value rises from -0.0205 to 0.145.

Going from CTCCCCTA to ACGACAAA, the “PBM E-score” value rises from -0.233 to 0.166.

Compared with ACGTAGCG, CTTCAGCC is lower in “PBM E-score” value: -0.0713 for the first, -0.134 for the second.

First: AAAACACC
Second: AGTCGATC
The “PBM E-score” value of the first is higher: 0.0622 for the first, -0.0827 for the second.

Compared with TCCTAACA, TACCACAA is lower in “PBM E-score” value: 0.128 for the first, 0.123 for the second.

First: AGCAGGCA
Second: CCATTAGC
The “PBM E-score” value of the first is lower: -0.18 for the first, -0.0279 for the second.

Compared with CGATTCAG, GCTGTCTA is lower in “PBM E-score” value: -0.0182 for the first, -0.117 for the second.

Compared with AATTGGTA, CGAGTTAA is lower in “PBM E-score” value: 0.158 for the first, 0.132 for the second.

First: CGGGCCTC
Second: CACTGAAG
The “PBM E-score” value of the first is lower: -0.0723 for the first, -0.0613 for the second.

First: AAGAGTCT
Second: CAAGGTCG
The “PBM E-score” value of the first is lower: -0.0997 for the first, -0.0141 for the second.

Going from GGCGTATA to ATGCTAGA, the “PBM E-score” value rises from -0.0969 to -0.0113.

Going from ACCGAACC to AAGTTATA, the “PBM E-score” value rises from -0.188 to 0.175.
